Laboratory results as given in paper PMC6686046.
Results are given in words; binding and its absence hold for the method and conditions named. In cells and extracts the contact can be indirect. Binding can be weak; no strength is given.

B1: FliF MS ring protein (protein, UniProt Q0PBJ1 1-560)
chain: MDFKNMLHQIGQLYQNLTRKQRIVIAASIIVVVGFLVFLALFRGSGSNANNGYAVLVENVSPSSSAAIVAKLEQNNIPYKLESENKILVPQDQVYRQRMFIASEGLIKDSRVGFEAFDTQAFGATNEEQKVKYQRAIEGELARTIETLEPIRSAVVHIAFPKDSVFTERQIPPTASVVVNVREGLKLTRKQIDGIKNIVSAAVPKLTKENVKISDQSGVPLDEQEAYEDDLVRAQIKFKSDQEKALEDKIIENLAPFAGGMDKVKVSVNIDFDFSKQESQSEIYDPNPIVRSEQTLNEERTGRKDPEIQGVPGAVSNIGPVEGLDNKGQIDTYKKNQVTTNNELSKTITNTKKQFATVLRTSAAVTIDGKYQDVVDENGDVKSEYVPLTKEELASVESIVKNTINFSATRGDSVVVQNLPFHRESIRVESKVKTFYNRFVEPFIPPVKYFIAAILLFIFYKKVIAPFTQKMLEDVAAQEEMQQGPNAVLDDAEDALEKFNAARKKVEEQLGFGDNFNEDSIQYEVLLEKLRGLVSDKGEEIAALLQNLIQNDSEFGEKDM
B2: MotB (protein, UniProt Q0PBH3 1-247)
chain: MAKKHKCPECPAGEKWAVPYADFLSLLLALFIALWAISKTNPAKVEALKTEFVKIFDYTSTQTVKEESKTQEKYKGAAKEESDELKSLKQMTMTQQETIKRLQAALDQSDNQVALNLPSKVEFERGSAQIVSADIQDYLKRMAELTTYLPPQAKIEIRGYTDNSDSIIRSYELAYQRAENVLKYFIEGGANLKNISIKSYGLNNPINGNPQTLENNRVEIYFKVDTADTSTQKSVLELINKIGTKAP

Tests used:
[1] = target: FLAG-FlgX (Campylobacter jejuni 81-176); test: co-IP; C. jejuni cells cross-linked with 0.1% formaldehyde, quenched with glycine, osmotically lysed, solubilised with Triton X-100; FLAG-tagged FlgX precipitated overnight at 4°C with anti-FLAG M2 affinity gel resin, 3 washes with RIPA buffer; preys detected by immunoblot with specific antisera; strains ΔflgX, ΔflgX ΔmotB, ΔflgX ΔmotA and ΔflgX motA_(H138Y)
[2] = target: FlgX-FLAG (Campylobacter jejuni 81-176); test: as above

| Binder | binding [1] | binding [2] |
| --- | --- | --- |
| B1 | no binding | no binding |
| B2 | binds | binds |
